In patent publication US20140322233A1:
These are yes or no findings as the source states them, for the method shown. Some results given as binding are weak or reduced against the parent protein; the word gives no strength.

T1: GCC array peptides 55, 56 and 57 (sequence spanned: SEQ ID NO:225) (human)
T1 sequence (peptide): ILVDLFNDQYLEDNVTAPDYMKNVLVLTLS

B1: mAb 8F1 (antibody, IgG1, V domains shown)
VH: QVQLQQPGAELVKPGASVQMSCKASGYIFTGYWMYWVKQRPGQGLEWIGRIHPSDSNTNYNQKFKGKATLTVDKSSSTAYMQLSSLTSEDSAVYYCTHALAYWGQGTLVTVS
VL: DVVLTQTPLTLSITIGQPASISCKSSQSLLYSNGKTYLSWLLQRPGQSPKRLIYLVSQLDSGVPDRFTGSGSGTDFTLKISRVEAEDLGVYYCVQGTHLFTFGSGTKLEIK
B2: mAb Abx-198 (antibody, IgG1, V domains shown)
VH: EVQLLESGGGLVQPGGSLRLSCAASGFTFSSYAMSWVRQAPGKGLDWVSDISGSGGSTYYADSVKGRFTISRDNSKNTLYLQMHSLSAEDTAIYYCAKRRWQGYFDLWGRGTLVTVSS
VL: EIVLTQSPGTLSLSPGERATLSCRARQRVDSRYLAWYQQKPGQAPRLLIYGASSRATGIPDRFSGSGSGTDFTLTISRLEPEDFAVYYCQQYGSSPLTFGGGTKVEIK
B3: mAb 3G1 (antibody, IgG1, V domains shown)
VH: QVQLKESGPGLVAPSQSLSITCTVSGFSLSRNAISWVRQPPGKGLEWLGVIWTGGGTNYNSALKSRLSIRKENSKSQVFLKMNSLQTEDTARYFCARSGYDGFDYWGQGTLVTVSA
VL: QIVLTQSPAIMSASPGEKVTMTCSASSSVNYMHWYQQKSGTSPKRWIYDTSKLASGVPARFSGSGSGTSYSLTITSMEAEDAATYYCQQWSGNPYTFGGGTKLEIK

biological target: T1, GCC array peptides 55, 56 and 57 (sequence spanned: SEQ ID NO:225) (human); assay: array of 20-mer GCC peptides on glass slides

binding, binds:
B1
B2
B3
